Data on 1 molecule can be found in patent publication US20190330358A1.

No constants are given. Whether binding was seen depends on the method and setting. Some binding calls cover weakened binding; strength is not graded here. Tags and fused reporters may be left off the sequences shown.

The target of the assay is T1, Glutathione S-transferase (GST)-tagged AITR (human) (UniProt Q9Y5U5).
T1 sequence (looked up): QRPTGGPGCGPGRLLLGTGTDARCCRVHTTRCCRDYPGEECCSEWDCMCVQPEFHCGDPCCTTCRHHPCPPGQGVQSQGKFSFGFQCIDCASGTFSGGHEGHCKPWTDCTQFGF
As to the kind of experiment: SPR (Biacore T200), captured antibody, GST-AITR analyte. A general note: SPR reads the build-up and loss of mass on a sensor chip optically.

B1: H1F1.M69 (H1F1.H2.J1/H1F1.L3.J1) (antibody, V domains shown)
VH: QVQLVQSGAQVKMPGESLKVSCKASGYTFTDYGMGWVRQAPGQGLEWMGWISPYTGRTNSSDKFQGRVTMTRDTSTSTAYMELRSLRSEDTAVYYCARDGTYYDFWSGYFDNNAFDIWGQGTLVTVSS
VL: QSVVTQPPSVSGAPGQRVTISCSGSTSNIGNNYVSWYQQLPGTAPKLLIYDNYKRPSGVPDRFSGSKSGTSASLAITGLQTEDEADYYCGTWDSSLNAWVFGGGTKLTVL
In the case of B1, the binding entry was “binds”.
